Data as given in PubChem BioAssay AID504764 (Drosophila RNAi Screening Center, 2011)
Purpose: 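Genome-wide screen for regulators of Notch-driven gene expression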 (primary screen). Cell system: Drosophila Kc167 cells. Knock-down reagent: long dsRNA against Drosophila genes. Time to read-out: about 5 days (4 days dsRNA, then 24 h after transfection). Treatment: transfection of constitutively active membrane-tethered Notch lacking the extracellular domain, read 24 h later. Read-out: 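Firefly luciferase from an E(spl)m3 reporter with active Notch, plus control-promoter and uninduced reporter wells for normalisation; unnormalised counts, duplicate wells a and b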. Reading the numbers: induced reporter light, run 1, well a and induced reporter light, run 1, well b: higher = more light from the Notch target reporter with active Notch; control promoter light, run 1, well a and control promoter light, run 1, well b: higher = more light from the viral control promoter (cell number, transfection, viability); uninduced reporter light, run 1, well a: higher = more light from the Notch target reporter without active Notch. Call rule: 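Wells with low control signal or poorly matching duplicates excluded; duplicates averaged; per source plate, z beyond ±2 for induced/control log2 ratio or beyond ±1.8 for induced/uninduced marks a hit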. Calls: active = modifier hit (raised or lowered Notch signal); inactive = not a hit.
In all, the deposit lists about 22,000 reagents; this is an unselected part of those that have a named target and a result. In the full data, 403 (1.9%) got an active call. 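Unnormalised raw counts per well; ratio z-scores behind the hit calls and whether each hit raises or lowers signal are not deposited.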 Unmarked entries are inactive. The numbers tell different reagents against one gene apart. A plus sign joins genes that one reagent is predicted to hit. Not stated in the record: the amount of reagent.

gene,reagent no.,"induced reporter light, run 1, well a","induced reporter light, run 1, well b","control promoter light, run 1, well a","control promoter light, run 1, well b","uninduced reporter light, run 1, well a"
nAChRalpha2 (nicotinic Acetylcholine Receptor alpha2),1,61565,62790,59655,52570,5165
CG14120,1,1.71e5,1.43e5,2.01e5,1.65e5,9585
Sans (Scaffold protein containing ankyrin repeats and SAM domain),1,1.61e5 (active),1.55e5,2.07e5,2.24e5,11350
CG13203,1,1.31e5,1.33e5,1.41e5,1.76e5,12000
Slh (SLY-1 homologous),1,49950,55245,63745,33305,4715
cato (cousin of atonal),1,1.20e5,98250,1.11e5,1.16e5,11535
CG8323,1,1.16e5,1.38e5,1.78e5,1.48e5,11360
CG42521,1,1.66e5,1.60e5,2.15e5,1.90e5,12135
CG13937,1,2.26e5,1.68e5,2.41e5,2.76e5,13160
CG10062,1,1.12e5,1.09e5,1.74e5,2.04e5,8545
CG7231,1,1.33e5,1.59e5,85760,97690,20675
stv (starvin),1,59600,80765,40570,64710,8515
stv (starvin),2,71030,53475,77035,70715,4795
"AP-1sigma (Adaptor Protein complex 1, sigma subunit)",1,1.38e5,2.08e5,2.17e5,2.34e5,12985
CG7011 + Prp31,1,1.30e5,1.64e5,1.24e5,1.46e5,13565
CG1764,1,1.54e5,1.32e5,1.90e5,1.62e5,12365
bsk (basket),1,1.96e5,1.95e5,1.65e5,1.50e5,18010
CG17270,1,1.68e5,1.88e5,1.96e5,2.24e5,14955
CG30269,1,1.69e5,1.41e5,1.84e5,1.64e5,11145
"Sr-CII (Scavenger receptor class C, type II)",1,94280,80775,1.19e5,1.11e5,7110
Slip1 (SLo interacting protein 1),1,1.46e5,1.58e5,1.96e5,2.34e5,9370
128up (upstream of RpIII128),1,1.62e5,1.80e5,1.64e5,1.69e5,14895
Mlc1 (Myosin alkali light chain 1),1,1.07e5,83535,2.03e5,1.54e5,9970
DIP-theta (Dpr-interacting protein theta),1,1.08e5,1.06e5,1.66e5,1.25e5,8470
DIP-theta (Dpr-interacting protein theta),2,1.48e5,1.26e5,2.18e5,2.09e5,10070
DIP-theta (Dpr-interacting protein theta),3,1.34e5,1.11e5,1.34e5,1.17e5,9610
Vps4 (Vacuolar protein sorting 4),1,77570,64335,56870,34100,5005
CG5984,1,1.39e5,1.42e5,2.11e5,1.51e5,12430
CG15097,1,38525,48470,58970,70375,3455
CG31249,1,2.08e5,1.87e5,2.19e5,2.26e5,12640
CG15160,1,81930,57190,74340,68715,2592
CG12147,1,72590,73365,53360,53030,3945
CG10543,1,6445,5670,6792,6405,1140
CG31036,1,1.44e5,1.51e5,1.85e5,1.88e5,13270
CG31036,2,1.19e5,1.22e5,1.41e5,1.21e5,11945
cnk (connector enhancer of ksr),1,1.02e5,74380,65315,83800,6075
Hrb87F (Heterogeneous nuclear ribonucleoprotein at 87F),1,55385,51550,43545,37410,5865
CG31678,1,1.99e5,1.72e5,1.39e5,1.48e5,13042
CG31678,2,55975,39935,26645,28660,2080
Pus7 (Pseudouridine synthase 7),1,1.71e5,1.75e5,2.22e5,1.91e5,8705
CG3081,1,1.79e5,1.61e5,2.81e5,3.20e5,12900
Cp110 (Centriolar coiled coil protein 110kDa),1,1.53e5,1.26e5,89310,60405,9960
ftz-f1 (ftz transcription factor 1),1,1.41e5,1.13e5,1.47e5,1.60e5,6642
CRIF (CR6-interacting factor),1,1.26e5,1.05e5,1.12e5,93075,6825
Myt1,1,2.74e5,2.35e5,2.44e5,2.57e5,14815
CG30383,1,49025,46785,62020,59500,2388
CG33140,1,1.61e5,1.38e5,1.44e5,1.59e5,12565
5-HT2B (5-hydroxytryptamine (serotonin) receptor 2B),1,79815,89470,59105,55380,5340
5-HT2B (5-hydroxytryptamine (serotonin) receptor 2B),2,73150,86005,75410,57630,4670
Gyc89Da (Guanylyl cyclase at 89Da),1,2.53e5,2.45e5,2.24e5,2.11e5,16745

6 of these entries, set out differently:
{"gene": "Sans (Scaffold protein containing ankyrin repeats and SAM domain)", "reagent no.": 1, "induced reporter light, run 1, well a": "1.61e5 (active)", "induced reporter light, run 1, well b": 1.55e5, "control promoter light, run 1, well a": 2.07e5, "control promoter light, run 1, well b": 2.24e5, "uninduced reporter light, run 1, well a": 11350}
{"gene": "CG13203", "reagent no.": 1, "induced reporter light, run 1, well a": 1.31e5, "induced reporter light, run 1, well b": 1.33e5, "control promoter light, run 1, well a": 1.41e5, "control promoter light, run 1, well b": 1.76e5, "uninduced reporter light, run 1, well a": 12000}
{"gene": "Slh (SLY-1 homologous)", "reagent no.": 1, "induced reporter light, run 1, well a": 49950, "induced reporter light, run 1, well b": 55245, "control promoter light, run 1, well a": 63745, "control promoter light, run 1, well b": 33305, "uninduced reporter light, run 1, well a": 4715}
{"gene": "cato (cousin of atonal)", "reagent no.": 1, "induced reporter light, run 1, well a": 1.20e5, "induced reporter light, run 1, well b": 98250, "control promoter light, run 1, well a": 1.11e5, "control promoter light, run 1, well b": 1.16e5, "uninduced reporter light, run 1, well a": 11535}
{"gene": "CG8323", "reagent no.": 1, "induced reporter light, run 1, well a": 1.16e5, "induced reporter light, run 1, well b": 1.38e5, "control promoter light, run 1, well a": 1.78e5, "control promoter light, run 1, well b": 1.48e5, "uninduced reporter light, run 1, well a": 11360}
{"gene": "CG42521", "reagent no.": 1, "induced reporter light, run 1, well a": 1.66e5, "induced reporter light, run 1, well b": 1.60e5, "control promoter light, run 1, well a": 2.15e5, "control promoter light, run 1, well b": 1.90e5, "uninduced reporter light, run 1, well a": 12135}
